Experimental data taken from patent US7265246B2, “Indane derivates as muscarinic receptor agonists” (Eli Lilly and Company, priority 2003, dated 2007).

Tested on: Male Sprague-Dawley rats
Conditions: s.c. immediately after the sampling phase; tested after a three-hour delay

Question: For `CN1[C@@H]2C[C@@H](OC(=O)[C@H](CO)c3ccccc3)C[C@H]1[C@@H]1O[C@@H]12` [Scopolamine, scopolamine], which “retention in the eight arm radial maze” value is on record?
Answer: disrupted retention after a three-hour delay in a dose-related fashion
